No constants are given. Whether binding was seen depends on the method and setting. Binding seen in cells or lysates may run through a third protein. These calls come from enrichment with a bait or labelling near it, and not all partners need be listed. For some assays here: No binding means not detected with the bait. For some assays here: Tags and fused reporters may be left off the sequences shown.
T1: GFP-tagged HAKAI (Arabidopsis) (UniProt Q9LFC0)
T1 sequence: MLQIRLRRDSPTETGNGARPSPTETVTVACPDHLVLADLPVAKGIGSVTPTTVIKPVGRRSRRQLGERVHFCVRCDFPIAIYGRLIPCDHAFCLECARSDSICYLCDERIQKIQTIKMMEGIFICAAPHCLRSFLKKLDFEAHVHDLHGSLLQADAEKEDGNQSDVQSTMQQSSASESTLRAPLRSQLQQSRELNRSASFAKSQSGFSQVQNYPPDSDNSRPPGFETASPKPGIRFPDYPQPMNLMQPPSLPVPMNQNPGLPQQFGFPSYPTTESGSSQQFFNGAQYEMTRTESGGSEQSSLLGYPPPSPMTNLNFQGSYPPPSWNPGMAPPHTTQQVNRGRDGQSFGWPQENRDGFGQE

Amino acid sequences for entries named in this document (tags omitted).
UniProt O82486: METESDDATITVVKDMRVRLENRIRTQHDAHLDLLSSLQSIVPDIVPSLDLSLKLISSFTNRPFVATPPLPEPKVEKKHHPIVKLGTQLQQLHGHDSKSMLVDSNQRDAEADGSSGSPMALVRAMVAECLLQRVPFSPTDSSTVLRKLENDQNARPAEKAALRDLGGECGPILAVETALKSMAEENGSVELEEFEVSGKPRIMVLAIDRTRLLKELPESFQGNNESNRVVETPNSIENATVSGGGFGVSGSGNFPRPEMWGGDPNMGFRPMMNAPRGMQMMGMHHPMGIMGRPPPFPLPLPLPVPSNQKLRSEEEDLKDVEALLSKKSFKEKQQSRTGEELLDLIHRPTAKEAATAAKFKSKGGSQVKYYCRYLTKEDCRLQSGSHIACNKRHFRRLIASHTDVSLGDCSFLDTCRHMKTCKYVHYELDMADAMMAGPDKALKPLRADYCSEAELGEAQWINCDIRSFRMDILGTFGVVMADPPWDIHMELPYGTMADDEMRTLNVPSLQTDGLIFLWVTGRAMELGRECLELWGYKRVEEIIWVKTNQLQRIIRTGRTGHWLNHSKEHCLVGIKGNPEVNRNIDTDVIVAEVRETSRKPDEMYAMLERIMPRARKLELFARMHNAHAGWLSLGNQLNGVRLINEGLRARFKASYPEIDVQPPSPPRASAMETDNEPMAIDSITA
UniProt F4J8G7: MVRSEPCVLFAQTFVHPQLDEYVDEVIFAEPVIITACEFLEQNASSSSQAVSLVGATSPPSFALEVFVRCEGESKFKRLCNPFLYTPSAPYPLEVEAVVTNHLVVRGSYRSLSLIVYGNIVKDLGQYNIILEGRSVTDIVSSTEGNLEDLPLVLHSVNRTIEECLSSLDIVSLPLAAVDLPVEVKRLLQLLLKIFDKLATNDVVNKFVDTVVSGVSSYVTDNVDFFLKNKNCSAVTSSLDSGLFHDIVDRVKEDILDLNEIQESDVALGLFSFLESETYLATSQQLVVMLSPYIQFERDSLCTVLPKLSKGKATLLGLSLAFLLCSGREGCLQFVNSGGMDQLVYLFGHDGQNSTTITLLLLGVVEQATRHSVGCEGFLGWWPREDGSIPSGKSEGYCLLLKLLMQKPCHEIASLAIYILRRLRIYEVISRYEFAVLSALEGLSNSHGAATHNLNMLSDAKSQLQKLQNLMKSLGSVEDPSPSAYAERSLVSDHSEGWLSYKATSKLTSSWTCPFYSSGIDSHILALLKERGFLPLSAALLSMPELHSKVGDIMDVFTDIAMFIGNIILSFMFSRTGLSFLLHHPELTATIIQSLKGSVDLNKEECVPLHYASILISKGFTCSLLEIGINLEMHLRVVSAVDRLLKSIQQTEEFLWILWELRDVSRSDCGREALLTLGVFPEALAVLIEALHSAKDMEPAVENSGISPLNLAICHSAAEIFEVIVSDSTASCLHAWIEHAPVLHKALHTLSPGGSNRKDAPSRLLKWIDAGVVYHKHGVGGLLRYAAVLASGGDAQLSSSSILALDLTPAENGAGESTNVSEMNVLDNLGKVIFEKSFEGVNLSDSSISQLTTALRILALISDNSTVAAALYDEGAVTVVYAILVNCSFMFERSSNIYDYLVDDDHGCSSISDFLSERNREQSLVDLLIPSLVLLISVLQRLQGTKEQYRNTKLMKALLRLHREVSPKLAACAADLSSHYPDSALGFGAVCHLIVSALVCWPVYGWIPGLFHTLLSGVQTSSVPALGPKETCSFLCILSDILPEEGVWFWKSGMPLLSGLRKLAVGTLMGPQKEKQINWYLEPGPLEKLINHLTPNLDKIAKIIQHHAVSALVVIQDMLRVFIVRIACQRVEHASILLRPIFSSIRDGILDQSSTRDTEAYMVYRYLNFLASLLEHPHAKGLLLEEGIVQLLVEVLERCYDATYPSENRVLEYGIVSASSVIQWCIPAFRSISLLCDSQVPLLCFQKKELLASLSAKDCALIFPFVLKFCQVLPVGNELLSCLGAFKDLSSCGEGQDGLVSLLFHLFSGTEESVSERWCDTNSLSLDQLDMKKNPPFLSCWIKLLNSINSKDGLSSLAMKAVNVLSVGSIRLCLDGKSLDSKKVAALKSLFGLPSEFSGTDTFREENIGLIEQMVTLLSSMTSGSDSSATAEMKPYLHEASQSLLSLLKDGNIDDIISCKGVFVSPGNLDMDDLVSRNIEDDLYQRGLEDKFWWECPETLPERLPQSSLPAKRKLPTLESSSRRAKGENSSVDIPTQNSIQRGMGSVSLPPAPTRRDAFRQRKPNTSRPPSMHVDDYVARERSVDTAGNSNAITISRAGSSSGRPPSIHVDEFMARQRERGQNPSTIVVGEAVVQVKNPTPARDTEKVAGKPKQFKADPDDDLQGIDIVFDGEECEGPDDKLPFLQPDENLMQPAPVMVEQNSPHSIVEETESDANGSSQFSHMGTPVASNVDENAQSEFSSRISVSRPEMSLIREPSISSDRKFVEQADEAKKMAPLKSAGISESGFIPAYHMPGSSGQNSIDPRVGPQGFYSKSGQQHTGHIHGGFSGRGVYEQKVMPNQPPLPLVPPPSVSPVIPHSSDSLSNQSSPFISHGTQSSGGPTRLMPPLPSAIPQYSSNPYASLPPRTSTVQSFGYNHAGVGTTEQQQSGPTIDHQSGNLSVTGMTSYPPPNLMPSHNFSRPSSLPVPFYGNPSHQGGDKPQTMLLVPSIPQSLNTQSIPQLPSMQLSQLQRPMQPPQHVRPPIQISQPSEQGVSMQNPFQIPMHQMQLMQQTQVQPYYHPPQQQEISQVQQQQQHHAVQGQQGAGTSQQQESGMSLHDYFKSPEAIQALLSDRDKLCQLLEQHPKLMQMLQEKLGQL

T2: GFP-tagged HAKAI (Arabidopsis), Q9LFC0
T2 chain: T1 sequence

B1: FKBP12 interacting protein 37 (FIP37) (protein, UniProt Q9ZSZ8 1-330)
chain: MEFSSQDDDFGGDDSAANATRASGNRRSFGDLEDDEDDIFGSTTVAPGVRTGMILSLRGSLKNCKDDLASCQNELESAKTEIQKWKSAFQNESFVPAGKSPEPRFLIDYIQNLKSSEKSLKEQLEIAKRKEASCIVQYAKREQEMAELKSAVRDLKSQLKPASMQARRLLLDPAIHEEFSRLKNLVEEKDKKIKELQDNIAAVTFTPQSKNGKMLMAKCRTLQEENEEIGHQAAEGKIHELAIKLAMQKSQNAELRSQFEGLYKHMEELTNDVERSNETVIILQEKLEEKEKEIERVKKGLEIVSELVGDKKDEVDEIDEDAKEEIAGGE
B2: HAKAI (protein, UniProt Q9LFC0 1-360)
chain: T1 sequence
B3: HAKAI-interacting zinc finger protein 1 (HIZ1) (protein, UniProt Q9LQM3 1-384)
chain: MSHHRRDSGGDVVHVIPTNNPPPDNWFPNLGDSAVWATEDDYNRAWAMNPDNTSGDNNGPPNKKTRGSPSSSSATTTSAASNRTKAIGKMFFKTKLCCKFRAGTCPYITNCNFAHTVEELRRPPPNWQEIVAAHEEERSGGMGTPTVSVVEIPREEFQIPSLVSSTAESGRSFKGRHCKKFYTEEGCPYGESCTFLHDEASRNRESVAISLGPGGYGSGGGGGSGGGSVGGGGSSSNVVVLGGGGGSGSGSGIQILKPSNWKTRICNKWEITGYCPFGAKCHFAHGAAELHRFGGGLVEEEGKDGVSPNPDTKQTVQNPKGLSDTTTLLSPGVPHNADASYHTGVALQRASSAVTQKPGIRTHQKWKGPAKISRIYGDWIDDIE
B4: heat shock protein 70 family member Hsp70-15 (protein, UniProt F4HQD4 1-831)
chain: MSVVGFDFGNENCLVAVARQRGIDVVLNDESNRETPAIVCFGDKQRFIGTAGAASTMMNPKNSISQIKRLIGRQFSDPELQRDIKSLPFSVTEGPDGYPLIHANYLGEIRAFTPTQVMGMMLSNLKGIAEKNLNTAVVDCCIGIPVYFTDLQRRAVLDAATIAGLHPLHLIHETTATALAYGIYKTDLPENDQLNVAFIDIGHASMQVCIAGFKKGQLKILSHAFDRSLGGRDFDEVLFNHFAAKFKDEYKIDVSQNAKASLRLRATCEKLKKVLSANPMAPLNIECLMAEKDVRGVIKREEFEEISIPILERVKRPLEKALSDAGLTVEDVHMVEVVGSGSRVPAMIKILTEFFGKEPRRTMNASECVSRGCALQCAILSPTFKVREFQVHESFPFSISLAWKGAATDAQNGGTENQQSTIVFPKGNPIPSVKALTFYRSGTFSIDVQYSDVNDLQAPPKISTYTIGPFQSSKGERAKLKVKVRLNLHGIVSVESATLLEEEEVEVSVTKDQSEETAKMDTDKASAEAAPASGDSDVNMQDAKDTSDATGTDNGVPESAEKPVQMETDSKAEAPKKKVKKTNVPLSELVYGALKTVEVEKAVEKEFEMALQDRVMEETKDRKNAVESYVYDMRNKLSDKYQEYITDSEREAFLANLQEVEDWLYEDGEDETKGVYVAKLEELKKVGDPVEVRYKESLERGSVIDQLGYCINSYREAAVSNDPKFDHIELAEKQKVLNECVEAEAWLREKQQQQDTLPKYATPALLSADVKSKAEALDKFCRPIMTKPKPAAKAEAPQAKGGEQADEGKSEPEQPASAEAMETENPAEGST
B5: mRNA adenosine methylase B (MTB) (protein, UniProt Q94AI4 1-775)
chain: MKKKQEESSLEKLSTWYQDGEQDGGDRSEKRRMSLKASDFESSSRSGGSKSKEDNKSVVDVEHQDRDSKRERDGRERTHGSSSDSSKRKRWDEAGGLVNDGDHKSSKLSDSRHDSGGERVSVSNEHGESRRDLKSDRSLKTSSRDEKSKSRGVKDDDRGSPLKKTSGKDGSEVVREVGRSNRSKTPDADYEKEKYSRKDERSRGRDDGWSDRDRDQEGLKDNWKRRHSSSGDKDQKDGDLLYDRGREREFPRQGRERSEGERSHGRLGGRKDGNRGEAVKALSSGGVSNENYDVIEIQTKPHDYVRGESGPNFARMTESGQQPPKKPSNNEEEWAHNQEGRQRSETFGFGSYGEDSRDEAGEASSDYSGAKARNQRGSTPGRTNFVQTPNRGYQTPQGTRGNRPLRGGKGRPAGGRENQQGAIPMPIMGSPFANLGMPPPSPIHSLTPGMSPIPGTSVTPVFMPPFAPTLIWPGARGVDGNMLPVPPVLSPLPPGPSGPRFPSIGTPPNPNMFFTPPGSDRGGPPNFPGSNISGQMGRGMPSDKTSGGWVPPRGGGPPGKAPSRGEQNDYSQNFVDTGMRPQNFIRELELTNVEDYPKLRELIQKKDEIVSNSASAPMYLKGDLHEVELSPELFGTKFDVILVDPPWEEYVHRAPGVSDSMEYWTFEDIINLKIEAIADTPSFLFLWVGDGVGLEQGRQCLKKWGFRRCEDICWVKTNKSNAAPTLRHDSRTVFQRSKEHCLMGIKGTVRRSTDGHIIHANIDTDVIIAEEPPYG
B6: mRNA adenosine methylase B (MTB), Q94AI4 1-775 (protein)
chain: B5 chain

Assays:
Experiment in all cases: affinity purification with mass spectrometry; in vivo interaction proteomics (IVI-MS): 2-week-old seedlings crosslinked with 1% formaldehyde, nuclei isolated and lysed, GFP-tagged bait held on GFP-Trap_A agarose beads (5 h, 4 °C), crosslinks reversed, LFQ mass spectrometry against WT; lines HAKAIpro:HAKAI-GFP/hakai and MTApro:MTA-GFP/mta
[1] = target: T1, GFP-tagged HAKAI (Arabidopsis)
[2] = target: GFP-tagged MTA (mRNA adenosine methylase A) (Arabidopsis) (UniProt O82486)
[3] = target: T2, GFP-tagged HAKAI (Arabidopsis), Q9LFC0; details: remark: other sources report otherwise

Molecule	binding [1]	binding [2]	binding [3]
HAKAI-interacting zinc finger protein 2 (HIZ2) (Arabidopsis (endogenous in seedlings))	binds	–	–
VIRILIZER (VIR) (from UniProt F4J8G7 1-2138)	binds	binds	–
mRNA adenosine methylase A (MTA) (from UniProt O82486 1-685)	binds	–	–
B1	binds	binds	–
B2	–	binds	–
B3	binds	–	–
B4	binds	–	–
B5	–	binds	–
B6	–	–	no binding
